Measured values taken from the supplement of paper PMC10849652.
This is one part of the list.

The chains behind the UniProt entries cited, without tags or fusion partners. Where a name states a change or a piece, a line headed by the entry shows the natural chain unless it says otherwise.
UniProt Q9Y692: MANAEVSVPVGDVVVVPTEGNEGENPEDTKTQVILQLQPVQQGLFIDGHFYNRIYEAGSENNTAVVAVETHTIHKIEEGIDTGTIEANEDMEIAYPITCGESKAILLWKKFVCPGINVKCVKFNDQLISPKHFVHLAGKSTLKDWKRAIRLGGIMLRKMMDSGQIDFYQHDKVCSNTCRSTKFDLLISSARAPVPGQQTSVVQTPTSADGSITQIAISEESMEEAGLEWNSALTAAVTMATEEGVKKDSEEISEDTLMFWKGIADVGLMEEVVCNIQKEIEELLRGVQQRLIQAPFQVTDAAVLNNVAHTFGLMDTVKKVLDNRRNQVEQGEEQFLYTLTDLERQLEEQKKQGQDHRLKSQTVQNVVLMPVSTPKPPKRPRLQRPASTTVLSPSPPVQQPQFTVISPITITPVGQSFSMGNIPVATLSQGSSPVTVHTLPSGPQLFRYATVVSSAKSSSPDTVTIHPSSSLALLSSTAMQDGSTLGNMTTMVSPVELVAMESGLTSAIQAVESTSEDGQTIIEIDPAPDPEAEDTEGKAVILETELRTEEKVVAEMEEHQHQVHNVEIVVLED
UniProt Q14789: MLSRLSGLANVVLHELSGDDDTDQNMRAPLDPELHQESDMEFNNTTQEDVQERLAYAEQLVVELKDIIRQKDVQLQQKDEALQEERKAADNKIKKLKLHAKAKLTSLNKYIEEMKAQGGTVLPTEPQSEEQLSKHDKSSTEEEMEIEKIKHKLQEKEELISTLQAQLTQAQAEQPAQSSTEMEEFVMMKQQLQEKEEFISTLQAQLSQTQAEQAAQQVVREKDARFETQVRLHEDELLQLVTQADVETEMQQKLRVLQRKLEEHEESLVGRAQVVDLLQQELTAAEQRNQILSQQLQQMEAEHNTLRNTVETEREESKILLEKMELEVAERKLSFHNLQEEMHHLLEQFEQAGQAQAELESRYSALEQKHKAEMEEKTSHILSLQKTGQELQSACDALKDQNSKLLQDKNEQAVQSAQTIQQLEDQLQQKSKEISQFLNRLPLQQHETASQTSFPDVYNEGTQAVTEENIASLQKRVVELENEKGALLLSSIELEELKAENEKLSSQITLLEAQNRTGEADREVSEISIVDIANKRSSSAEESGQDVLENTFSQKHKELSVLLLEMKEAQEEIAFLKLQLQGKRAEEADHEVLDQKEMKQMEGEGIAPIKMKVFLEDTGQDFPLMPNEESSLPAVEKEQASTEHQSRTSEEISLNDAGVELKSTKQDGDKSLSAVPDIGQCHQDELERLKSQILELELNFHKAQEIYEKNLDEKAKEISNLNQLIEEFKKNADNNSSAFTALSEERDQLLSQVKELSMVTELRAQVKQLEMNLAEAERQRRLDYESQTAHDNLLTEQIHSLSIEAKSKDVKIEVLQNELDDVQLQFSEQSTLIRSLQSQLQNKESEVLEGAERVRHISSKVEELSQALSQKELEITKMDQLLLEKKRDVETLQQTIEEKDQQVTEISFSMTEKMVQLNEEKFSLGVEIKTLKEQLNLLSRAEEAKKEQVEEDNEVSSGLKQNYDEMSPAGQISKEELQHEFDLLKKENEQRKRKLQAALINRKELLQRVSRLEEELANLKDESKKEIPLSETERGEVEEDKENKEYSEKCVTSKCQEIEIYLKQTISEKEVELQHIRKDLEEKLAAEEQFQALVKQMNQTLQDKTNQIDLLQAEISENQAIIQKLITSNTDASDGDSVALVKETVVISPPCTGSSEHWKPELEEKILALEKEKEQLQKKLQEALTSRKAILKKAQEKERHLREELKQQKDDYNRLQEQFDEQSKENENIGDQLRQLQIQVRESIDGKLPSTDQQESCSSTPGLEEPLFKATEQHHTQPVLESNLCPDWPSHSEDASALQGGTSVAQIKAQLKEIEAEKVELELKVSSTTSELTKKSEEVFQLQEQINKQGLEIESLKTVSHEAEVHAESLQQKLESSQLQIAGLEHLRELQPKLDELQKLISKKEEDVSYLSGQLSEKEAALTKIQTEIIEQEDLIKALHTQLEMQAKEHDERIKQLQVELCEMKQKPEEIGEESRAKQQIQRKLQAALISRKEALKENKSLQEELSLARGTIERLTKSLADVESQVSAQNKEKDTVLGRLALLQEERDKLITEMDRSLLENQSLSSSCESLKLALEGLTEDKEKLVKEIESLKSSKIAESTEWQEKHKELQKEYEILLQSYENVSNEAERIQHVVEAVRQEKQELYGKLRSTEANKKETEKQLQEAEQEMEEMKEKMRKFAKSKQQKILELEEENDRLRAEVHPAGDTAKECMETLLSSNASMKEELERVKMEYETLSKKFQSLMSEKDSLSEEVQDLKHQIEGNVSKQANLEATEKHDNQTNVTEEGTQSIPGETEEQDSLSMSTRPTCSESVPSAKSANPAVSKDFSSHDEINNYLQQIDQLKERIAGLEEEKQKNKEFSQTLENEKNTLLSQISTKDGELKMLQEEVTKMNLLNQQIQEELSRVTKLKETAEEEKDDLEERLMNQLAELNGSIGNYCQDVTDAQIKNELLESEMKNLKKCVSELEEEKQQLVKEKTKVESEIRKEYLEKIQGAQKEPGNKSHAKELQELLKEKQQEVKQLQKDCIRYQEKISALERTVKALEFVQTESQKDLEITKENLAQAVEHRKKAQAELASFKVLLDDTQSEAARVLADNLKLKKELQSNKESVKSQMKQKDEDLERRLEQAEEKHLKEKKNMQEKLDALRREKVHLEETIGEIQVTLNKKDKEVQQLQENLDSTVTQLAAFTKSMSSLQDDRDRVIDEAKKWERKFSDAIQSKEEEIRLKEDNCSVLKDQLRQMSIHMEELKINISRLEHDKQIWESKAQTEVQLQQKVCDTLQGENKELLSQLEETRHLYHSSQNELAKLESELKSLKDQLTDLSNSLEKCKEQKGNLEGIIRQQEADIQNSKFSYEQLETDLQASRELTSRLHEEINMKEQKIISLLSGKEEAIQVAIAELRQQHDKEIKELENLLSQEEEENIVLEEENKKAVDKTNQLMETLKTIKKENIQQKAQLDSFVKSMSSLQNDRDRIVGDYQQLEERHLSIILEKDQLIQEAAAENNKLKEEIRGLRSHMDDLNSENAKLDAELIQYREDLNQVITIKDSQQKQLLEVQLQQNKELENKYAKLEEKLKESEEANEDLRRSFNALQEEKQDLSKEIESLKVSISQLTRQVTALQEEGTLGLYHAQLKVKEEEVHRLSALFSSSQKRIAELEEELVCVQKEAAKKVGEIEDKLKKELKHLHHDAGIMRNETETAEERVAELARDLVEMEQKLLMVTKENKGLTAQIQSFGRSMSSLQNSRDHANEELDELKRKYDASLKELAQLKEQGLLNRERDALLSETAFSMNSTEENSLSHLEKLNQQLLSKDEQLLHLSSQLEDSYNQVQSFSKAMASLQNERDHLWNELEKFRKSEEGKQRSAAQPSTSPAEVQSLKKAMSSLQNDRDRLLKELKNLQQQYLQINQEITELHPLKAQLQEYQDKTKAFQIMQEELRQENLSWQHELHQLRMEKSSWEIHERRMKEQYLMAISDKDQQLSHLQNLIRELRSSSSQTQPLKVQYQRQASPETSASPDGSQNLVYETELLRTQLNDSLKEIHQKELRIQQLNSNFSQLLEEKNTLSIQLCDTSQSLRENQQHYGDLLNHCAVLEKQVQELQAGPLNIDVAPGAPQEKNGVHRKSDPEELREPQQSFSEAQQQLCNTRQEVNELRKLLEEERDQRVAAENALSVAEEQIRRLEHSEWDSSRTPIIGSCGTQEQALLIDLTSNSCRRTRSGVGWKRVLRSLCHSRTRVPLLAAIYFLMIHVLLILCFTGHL
UniProt Q3T8J9: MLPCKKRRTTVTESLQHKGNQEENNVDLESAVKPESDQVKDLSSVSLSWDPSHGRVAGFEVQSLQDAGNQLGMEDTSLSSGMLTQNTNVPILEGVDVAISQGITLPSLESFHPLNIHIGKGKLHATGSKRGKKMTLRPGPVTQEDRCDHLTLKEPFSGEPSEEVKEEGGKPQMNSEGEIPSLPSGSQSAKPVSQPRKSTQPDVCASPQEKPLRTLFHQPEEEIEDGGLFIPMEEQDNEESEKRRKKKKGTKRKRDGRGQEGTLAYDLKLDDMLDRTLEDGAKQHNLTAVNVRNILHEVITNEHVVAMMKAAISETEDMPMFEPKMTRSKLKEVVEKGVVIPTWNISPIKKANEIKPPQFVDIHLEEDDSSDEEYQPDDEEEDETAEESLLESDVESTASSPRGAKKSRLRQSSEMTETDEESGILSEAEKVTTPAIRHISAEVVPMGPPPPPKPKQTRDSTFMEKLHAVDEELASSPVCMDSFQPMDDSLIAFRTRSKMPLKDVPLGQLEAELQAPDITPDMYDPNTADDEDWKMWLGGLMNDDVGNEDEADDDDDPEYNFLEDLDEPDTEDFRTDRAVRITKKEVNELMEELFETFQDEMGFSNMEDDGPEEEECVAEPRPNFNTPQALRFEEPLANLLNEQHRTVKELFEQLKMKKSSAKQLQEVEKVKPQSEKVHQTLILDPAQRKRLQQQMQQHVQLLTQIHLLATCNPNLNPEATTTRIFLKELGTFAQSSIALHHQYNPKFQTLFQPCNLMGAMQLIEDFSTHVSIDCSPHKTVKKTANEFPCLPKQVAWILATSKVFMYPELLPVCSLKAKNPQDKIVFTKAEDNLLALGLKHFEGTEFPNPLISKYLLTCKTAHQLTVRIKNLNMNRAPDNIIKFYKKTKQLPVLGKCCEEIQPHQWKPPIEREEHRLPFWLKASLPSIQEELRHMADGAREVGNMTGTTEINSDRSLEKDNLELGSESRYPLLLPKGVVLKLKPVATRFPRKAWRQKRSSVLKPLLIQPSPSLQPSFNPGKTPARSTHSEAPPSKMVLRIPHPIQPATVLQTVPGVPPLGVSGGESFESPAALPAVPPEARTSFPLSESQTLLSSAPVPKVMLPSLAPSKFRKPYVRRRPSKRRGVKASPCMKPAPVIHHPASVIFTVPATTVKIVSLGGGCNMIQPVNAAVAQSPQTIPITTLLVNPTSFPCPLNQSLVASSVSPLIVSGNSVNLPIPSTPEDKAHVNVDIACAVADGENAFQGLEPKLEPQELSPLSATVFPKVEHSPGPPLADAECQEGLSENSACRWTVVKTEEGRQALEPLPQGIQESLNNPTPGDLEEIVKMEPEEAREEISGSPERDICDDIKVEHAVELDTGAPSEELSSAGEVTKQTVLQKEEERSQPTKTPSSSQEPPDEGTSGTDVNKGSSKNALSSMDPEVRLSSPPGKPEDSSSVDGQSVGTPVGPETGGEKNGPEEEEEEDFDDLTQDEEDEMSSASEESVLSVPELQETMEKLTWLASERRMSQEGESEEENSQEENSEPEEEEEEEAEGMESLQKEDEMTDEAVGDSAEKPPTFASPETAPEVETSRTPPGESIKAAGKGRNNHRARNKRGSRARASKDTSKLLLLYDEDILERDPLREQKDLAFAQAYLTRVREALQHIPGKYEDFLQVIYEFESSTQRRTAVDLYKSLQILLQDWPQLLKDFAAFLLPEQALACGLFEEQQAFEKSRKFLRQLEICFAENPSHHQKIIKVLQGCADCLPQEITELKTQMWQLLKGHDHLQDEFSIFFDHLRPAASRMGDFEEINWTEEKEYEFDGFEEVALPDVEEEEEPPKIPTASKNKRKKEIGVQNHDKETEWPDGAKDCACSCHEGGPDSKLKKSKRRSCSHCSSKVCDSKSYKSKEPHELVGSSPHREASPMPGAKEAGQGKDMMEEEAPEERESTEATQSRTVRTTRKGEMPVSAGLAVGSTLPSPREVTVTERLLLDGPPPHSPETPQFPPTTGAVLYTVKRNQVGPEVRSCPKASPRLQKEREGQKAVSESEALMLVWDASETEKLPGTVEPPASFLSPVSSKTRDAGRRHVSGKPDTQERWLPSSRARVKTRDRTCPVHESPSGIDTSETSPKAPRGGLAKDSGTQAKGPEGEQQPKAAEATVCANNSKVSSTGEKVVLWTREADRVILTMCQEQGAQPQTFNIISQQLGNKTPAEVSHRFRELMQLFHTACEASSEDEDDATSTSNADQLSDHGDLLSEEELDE
UniProt Q96I76: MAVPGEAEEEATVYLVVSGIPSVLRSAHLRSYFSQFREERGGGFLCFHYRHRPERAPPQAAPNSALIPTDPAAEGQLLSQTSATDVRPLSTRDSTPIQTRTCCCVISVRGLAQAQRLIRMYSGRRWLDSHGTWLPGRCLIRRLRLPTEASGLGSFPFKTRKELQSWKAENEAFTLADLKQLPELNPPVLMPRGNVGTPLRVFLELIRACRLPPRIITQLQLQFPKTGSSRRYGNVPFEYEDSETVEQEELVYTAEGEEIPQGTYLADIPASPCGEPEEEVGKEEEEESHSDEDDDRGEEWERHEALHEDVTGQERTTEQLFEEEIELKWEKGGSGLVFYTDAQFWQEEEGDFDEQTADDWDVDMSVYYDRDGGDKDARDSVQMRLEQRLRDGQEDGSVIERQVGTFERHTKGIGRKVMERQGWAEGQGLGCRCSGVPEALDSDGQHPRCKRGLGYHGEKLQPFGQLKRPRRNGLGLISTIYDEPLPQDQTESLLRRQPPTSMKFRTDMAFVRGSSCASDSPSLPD

Assays:
Experiment in all cases: log2 fold change, soluble protein after heating vs DMSO (PISA); higher = thermal stabilisation; K562 lysate, 10 uM; active = over 0.2 and 3.5 SD of the protein, either way, in both replicates (recomputed)
[1] = compound: CS(=O)(=O)N1CCN(Cc2cc3nc(-c4cccc5[nH]ncc45)nc(N4CCOCC4)c3s2)CC1 [pictilisib]
Summary of the method: (§1)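 To prepare the extract, K562 pellets were dounce-homogenised in PBS pH 7.4 with 1 mM MgCl2, giving crude material at 1 mg/mL protein. This was treated with 10 μM compound for 30 min, then heated in aliquots for 3 min over 48°C-58°C before pooling and addition of NP-40 to 0.5% at 4°C. Centrifugation at 21,000xg for 90 min left soluble protein in the supernatant, which TMTpro 16plex LC-MS/MS quantified with equalised channel sums. Results are log-two fold changes in thermal stability compared with solvent controls, from duplicates.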

[2] = compound: Cc1ccc(NC(=O)c2ccc(CN3CC[C@H](N(C)C)C3)c(C(F)(F)F)c2)cc1Nc1nccc(-c2cncnc2)n1 [bafetinib]
Summary of the method: as §1

[3] = compound: C[C@H](C1=CC=C(C=C1)C(=O)NC2=C3C=CNC3=NC=C2)N
Summary of the method: as §1

[4] = compound: Cc1cc(Nc2cc(CN3CCOCC3)c3nc(C)c(Cc4ccc(Cl)cc4F)n3n2)n[nH]1 [gandotinib]
Summary of the method: as §1

[5] = compound: Cc1cccc(CC(=O)N2CCc3c2ccc(-c2cn(C)c4ncnc(N)c24)c3F)n1
Summary of the method: as §1

[6] = compound: C[C@@H](Oc1cc(-c2cnn(C3CCNCC3)c2)cnc1N)c1c(Cl)ccc(F)c1Cl [crizotinib]
Summary of the method: as §1

[7] = compound: Cc1ccc(-n2nc(C(C)(C)C)cc2NC(=O)Nc2ccc(OCCN3CCOCC3)c3ccccc23)cc1 [doramapimod]
Summary of the method: as §1

[8] = compound: Cc1cn(-c2cc(NC(=O)c3ccc(C)c(Nc4nccc(-c5cccnc5)n4)c3)cc(C(F)(F)F)c2)cn1 [nilotinib]
Summary of the method: as §1

[9] = compound: Cc1nc(Nc2n[nH]c3c2CN(C(=O)N[C@H](CN(C)C)c2ccccc2)C3(C)C)c2sccc2n1
Summary of the method: as §1

[10] = compound: Cc1ncc(-c2ccnc(Nc3ccc(S(C)(=O)=O)cc3)n2)n1C(C)C
Summary of the method: as §1

[11] = compound: Cn1cc(CNCC2CCN(c3ncc(C(=O)NO)cn3)CC2)c2ccccc21 [quisinostat]
Summary of the method: as §1

[12] = compound: Cn1cncc1[C@@](N)(c1ccc(Cl)cc1)c1ccc2c(c1)c(-c1cccc(Cl)c1)cc(=O)n2C [tipifarnib]
Summary of the method: as §1

[13] = compound: NC(=O)Nc1cc(-c2cccc(F)c2)sc1C(=O)N[C@H]1CCCNC1
Summary of the method: as §1

[14] = compound: C[C@H](Nc1ncnc2nc[nH]c12)c1cc2cccc(Cl)c2c(=O)n1-c1ccccc1 [duvelisib]
Summary of the method: as §1

[15] = compound: Cc1nc(Nc2ncc(C(=O)Nc3c(C)cccc3Cl)s2)cc(N2CCN(CCO)CC2)n1 [dasatinib]
Summary of the method: as §1

[16] = compound: Cn1cc(-c2ccc3c(c2)CCN3C(=O)Cc2cccc(C(F)(F)F)c2)c2c(N)ncnc21
Summary of the method: as §1

[17] = compound: NC1(c2ccc(-c3nc4ccn5c(=O)[nH]nc5c4cc3-c3ccccc3)cc2)CCC1
Summary of the method: as §1

[18] = compound: CS(=O)(=O)CCNCc1ccc(-c2ccc3ncnc(Nc4ccc(OCc5cccc(F)c5)c(Cl)c4)c3c2)o1 [lapatinib]
Summary of the method: as §1

[19] = compound: Cc1cc(Nc2cc(N3CCN(C)CC3)nc(Sc3ccc(NC(=O)C4CC4)cc3)n2)n[nH]1 [tozasertib]
Summary of the method: as §1

[20] = compound: NC(=O)c1cnc(N[C@@H]2CCCC[C@@H]2N)nc1Nc1cccc(-n2nccn2)c1
Summary of the method: as §1

Measured: log2 fold change

GNAS isoform 2 (UniProt Q5JWF2)
inactive: [1] -0.019 | [2] -0.005

GNAI1 (UniProt P63096)
inactive: [3] 0.101 | [4] 0.044 | [5] -0.097

GMEB1 isoform 2 (UniProt Q9Y692)
inactive: [6] 0.146 | [7] 0.025 | [8] -0.163 | [9] 0.06 | [10] 0.066 | [11] 0.058 | [12] 0.082 | [13] 0.03

GNG12 (UniProt Q9UBI6)
inactive: [3] 0.09 | [4] -0.024 | [5] -0.04 | [8] 0.025 | [9] -0.018 | [10] 0.078 | [12] -0.056

GNPTAB (UniProt Q3T906)
inactive: [1] -0.065 | [6] -0.066 | [3] -0.083 | [14] -0.062 | [4] 0.023 | [7] 0.001 | [2] 0.18 | [5] 0.085 | [8] -0.381 | [9] 0.011 | [15] 0.054 | [10] 0.046 | [16] 0.147 | [11] -0.018 | [12] -0.156 | [13] -0.025 | [17] -0.042

GOLGB1 isoform 4 (UniProt Q14789)
inactive: [14] 0.084 | [15] 0.076 | [16] -0.025

GNB4 (UniProt Q9HAV0)
inactive: [18] 0.031 | [1] -0.031 | [6] 0.106 | [3] -0.058 | [14] 0.015 | [4] 0.094 | [19] -0.028 | [7] 0.171 | [2] -0.033 | [5] 0.074 | [8] -0.083 | [9] 0.055 | [15] 0.048 | [10] 0.127 | [16] -0.097 | [11] 0.042 | [12] 0.048 | [13] -0.172 | [20] 0.028 | [17] 0.007

GK5 (UniProt Q6ZS86)
inactive: [6] -0.227 | [7] -0.007 | [11] -0.092 | [13] -0.071

GLRX (UniProt P35754)
inactive: [6] -0.016 | [19] 0.003 | [7] 0.073 | [11] 0.014 | [13] -0.028

GNB2 (UniProt P62879)
inactive: [18] -0.008 | [1] -0.056 | [6] -0.042 | [3] -0.054 | [14] -0.005 | [4] 0.036 | [19] -0.034 | [7] 0.038 | [2] -0.051 | [5] 0.001 | [8] 0.011 | [9] 0.01 | [15] 0.001 | [10] 0.015 | [16] 0.001 | [11] 0.001 | [12] -0.031 | [13] 0.012 | [20] -0.009 | [17] 0.023

GNS (UniProt P15586)
inactive: [18] 0.01 | [1] -0.01 | [6] 0.023 | [3] 0.025 | [14] 0.031 | [4] 0.017 | [19] 0.037 | [7] -0.041 | [2] 0.016 | [5] 0.016 | [8] 0.012 | [9] -0.011 | [15] 0.008 | [10] -0.06 | [16] 0.003 | [11] 0.007 | [12] 0.036 | [13] 0.005 | [20] 0.004 | [17] 0.006

GOSR1 (UniProt E9PCW1)
inactive: [1] -0.028 | [6] 0.024 | [3] -0.183 | [14] 0.062 | [4] -0.011 | [7] -0.16 | [2] -0.196 | [5] 0.034 | [8] -0.001 | [9] 0.001 | [15] -0.115 | [10] 0.128 | [16] -0.066 | [11] 0.096 | [12] -0.183 | [13] -0.038

GOLIM4 (UniProt O00461)
inactive: [18] 0.016 | [1] -0.042 | [6] 0.007 | [3] 0.129 | [14] -0.033 | [4] -0.074 | [19] -0.01 | [7] 0.028 | [2] -0.032 | [5] -0.082 | [8] 0.058 | [9] -0.058 | [15] -0.004 | [10] -0.046 | [16] -0.024 | [11] 0.061 | [12] 0.03 | [13] -0.029 | [20] 0.005 | [17] -0.011

GINM1 (UniProt Q9NU53)
inactive: [6] -0.243 | [3] -0.667 | [4] 0.282 | [7] 0 | [5] 0.427 | [8] 0.066 | [9] 0.102 | [10] -0.046 | [11] -0.359 | [12] 0.053 | [13] 0.047 | [17] -0.027

GLMP (UniProt Q8WWB7)
inactive: [6] -0.062 | [14] -0.063 | [19] -0.193 | [7] 0.168 | [8] -0.031 | [9] 0.091 | [15] -0.22 | [10] -0.029 | [16] -0.167 | [11] -0.052 | [12] 0.046 | [13] 0.054 | [17] -0.073

GPR68 (UniProt Q15743)
inactive: [6] -0.082 | [7] 0.024 | [11] 0.098 | [13] -0.026

GPSM1 (UniProt Q86YR5)
inactive: [6] 0.002 | [19] -0.031 | [7] -0.01 | [11] -0.103 | [13] 0.006 | [17] -0.074

GKAP1 (UniProt Q5VSY0)
inactive: [6] -0.051 | [7] 0.012 | [11] -0.088 | [13] -0.022

GOLGA4 (UniProt Q13439)
inactive: [1] 0.401 | [6] -0.016 | [14] 0.001 | [19] -0.137 | [7] 0.008 | [2] 0 | [8] -0.199 | [9] -0.267 | [15] -0.072 | [10] -0.026 | [16] -0.025 | [11] -0.153 | [12] -0.198 | [13] 0.022 | [17] -0.05

GON4L (UniProt Q3T8J9)
inactive: [18] 0.006 | [1] -0.04 | [6] -0.05 | [3] -0.066 | [14] -0.045 | [4] 0.391 | [19] -0.054 | [7] -0.011 | [2] -0.07 | [5] 0.01 | [8] 0.003 | [9] 0.012 | [15] 0.025 | [10] 0.067 | [16] 0.041 | [11] -0.061 | [12] -0.01 | [13] 0.019 | [20] -0.02 | [17] 0.022

GPATCH3 (UniProt Q96I76)
inactive: [6] -0.092 | [3] 0.076 | [4] -0.088 | [7] -0.043 | [5] -0.268 | [11] 0.046 | [13] 0.07 | [17] 0.124

Taken from above (three entries):
GLRX (UniProt P35754)
inactive: [6] -0.016 | [19] 0.003 | [7] 0.073 | [11] 0.014 | [13] -0.028

GNB2 (UniProt P62879)
inactive: [18] -0.008 | [1] -0.056 | [6] -0.042 | [3] -0.054 | [14] -0.005 | [4] 0.036 | [19] -0.034 | [7] 0.038 | [2] -0.051 | [5] 0.001 | [8] 0.011 | [9] 0.01 | [15] 0.001 | [10] 0.015 | [16] 0.001 | [11] 0.001 | [12] -0.031 | [13] 0.012 | [20] -0.009 | [17] 0.023

GNS (UniProt P15586)
inactive: [18] 0.01 | [1] -0.01 | [6] 0.023 | [3] 0.025 | [14] 0.031 | [4] 0.017 | [19] 0.037 | [7] -0.041 | [2] 0.016 | [5] 0.016 | [8] 0.012 | [9] -0.011 | [15] 0.008 | [10] -0.06 | [16] 0.003 | [11] 0.007 | [12] 0.036 | [13] 0.005 | [20] 0.004 | [17] 0.006
